Values of other authors, collected in patent US12514855B2 (IRR, Inc., priority 2020, dated 2026).
At least one structure is not confirmed: it was looked up by name or label, or the drawing left a doubt.

Test system: experimental rhinovirus infection

CC(C)(O)c1ccccc1CC[C@@H](SCC1(CC(=O)O)CC1)c1cccc(/C=C/c2ccc3ccc(Cl)cc3n2)c1 [montelukast]
improving asthma control or cold symptom scores (experimental rhinovirus infection): ineffective | peak expiratory flow (montelukast-treated patients): not decreased | percentage of sputum eosinophils (recovery phase, elevated in the placebo group): remained at baseline levels
